This experiment concerns the target T1, Syt13-BirA recombinant protein (mouse) (UniProt Q9EQT6).
T1 sequence: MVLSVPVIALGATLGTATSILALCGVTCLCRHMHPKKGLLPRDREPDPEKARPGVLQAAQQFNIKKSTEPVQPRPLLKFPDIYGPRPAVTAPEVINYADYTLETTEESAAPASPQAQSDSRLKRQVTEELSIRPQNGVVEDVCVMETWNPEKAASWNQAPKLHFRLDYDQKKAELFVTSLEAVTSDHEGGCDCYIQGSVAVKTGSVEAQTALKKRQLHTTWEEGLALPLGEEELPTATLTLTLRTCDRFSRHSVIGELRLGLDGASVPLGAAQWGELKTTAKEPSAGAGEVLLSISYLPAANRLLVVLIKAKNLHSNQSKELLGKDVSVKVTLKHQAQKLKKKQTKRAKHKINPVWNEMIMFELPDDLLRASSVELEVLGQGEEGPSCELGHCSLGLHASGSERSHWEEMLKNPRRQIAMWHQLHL
As to the kind of experiment: co-IP; MDCK cells; called co-IP in the results; the methods tell only of the precipitation on NeutrAvidin beads of the BioID approach, followed by western blot. In general terms: A western blot detects proteins with antibodies after separation by electrophoresis.

These are yes or no findings as the source states them, for the method shown. In cells and extracts the contact can be indirect. Binding calls can cover weak binding; strength is not graded here.

“Small GTPase Rab5 (canine (endogenous in MDCK))”: the binding result was “binds”.
Then “Small GTPase Rab7 (canine (endogenous in MDCK))”, with “binds”; and “Small GTPase Rab11 (canine (endogenous in MDCK))”, with “binds”; and “hepatocyte growth factor-regulated tyrosine kinase substrate (canine (endogenous in MDCK))”, with “binds”.
